Publication PMC8520724
These are yes or no findings as the source states them, for the method shown. In cells and extracts the contact can be indirect. Here binding means that the protein was enriched with, or labelled near, the bait; the list need not be complete.

Amino acid sequences for entries named in this document (tags omitted).
UniProt Q96EB6: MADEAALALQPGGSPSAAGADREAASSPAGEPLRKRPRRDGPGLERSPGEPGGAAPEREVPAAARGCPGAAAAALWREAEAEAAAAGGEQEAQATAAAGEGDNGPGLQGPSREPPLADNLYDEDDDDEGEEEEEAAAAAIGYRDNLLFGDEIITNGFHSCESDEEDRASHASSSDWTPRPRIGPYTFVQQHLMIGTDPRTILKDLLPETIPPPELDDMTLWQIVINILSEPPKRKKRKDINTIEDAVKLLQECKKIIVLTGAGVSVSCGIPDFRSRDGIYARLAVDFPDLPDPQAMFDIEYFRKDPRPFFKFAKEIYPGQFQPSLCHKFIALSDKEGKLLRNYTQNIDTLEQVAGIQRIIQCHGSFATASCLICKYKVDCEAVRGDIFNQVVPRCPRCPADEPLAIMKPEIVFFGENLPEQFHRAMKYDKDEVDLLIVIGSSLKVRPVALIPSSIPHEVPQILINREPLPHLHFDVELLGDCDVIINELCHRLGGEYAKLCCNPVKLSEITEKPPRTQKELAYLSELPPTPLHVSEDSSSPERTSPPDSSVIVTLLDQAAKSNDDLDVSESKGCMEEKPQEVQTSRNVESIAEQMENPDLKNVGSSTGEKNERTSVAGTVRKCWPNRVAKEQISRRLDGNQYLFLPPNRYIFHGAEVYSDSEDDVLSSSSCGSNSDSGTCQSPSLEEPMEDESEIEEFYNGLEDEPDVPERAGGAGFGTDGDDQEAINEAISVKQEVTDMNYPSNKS
UniProt P08670: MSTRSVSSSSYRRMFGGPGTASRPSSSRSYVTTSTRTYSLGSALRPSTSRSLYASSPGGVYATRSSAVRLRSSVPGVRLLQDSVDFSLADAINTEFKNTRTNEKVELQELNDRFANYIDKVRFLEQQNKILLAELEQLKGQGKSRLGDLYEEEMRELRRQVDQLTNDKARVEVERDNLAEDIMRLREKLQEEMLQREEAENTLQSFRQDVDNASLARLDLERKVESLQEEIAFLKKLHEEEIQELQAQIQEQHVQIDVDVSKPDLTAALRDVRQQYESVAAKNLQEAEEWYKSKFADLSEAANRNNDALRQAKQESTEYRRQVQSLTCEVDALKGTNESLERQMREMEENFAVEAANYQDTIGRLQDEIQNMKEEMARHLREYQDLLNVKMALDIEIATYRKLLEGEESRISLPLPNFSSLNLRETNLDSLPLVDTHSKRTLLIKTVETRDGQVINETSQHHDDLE

Target: SIRT1 (human (endogenous in HTR8/SVneo cells and human first-trimester villi)) (UniProt Q96EB6)
Assay: affinity purification with mass spectrometry; IP of endogenous SIRT1 (anti-SIRT1 on Protein A/G magnetic beads, 8 h at 4°C) from lysates of HTR8/SVneo cells and of human first-trimester villi in IP lysis buffer; matched IgG isotype control; SDS-PAGE, in-gel tryptic digestion, LC-MS/MS

binding: binds
Substance: vimentin (from UniProt P08670 1-466)
